This experiment has as its system BDF1 mice, P388 leukemia ip, median survival T/C. In words: NCI In Vivo Anticancer Drug Screen. Data for tumor model P388 Leukemia (intraperitoneal) in B6D2F1 (BDF1) mice. Particulars: T/C endpoint: median survival time, higher T/C = longer survival. In outline:
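Survival ratio, drug arm over vehicle arm, in mice with a transplanted tumour.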

[1] abbreviates: dose: 400.0 mg/kg/injection, schedule: Q04DX003 (ip), vehicle: Klucel (hydroxypropylcellulose) (HPC).
[2] abbreviates: dose: 200.0 mg/kg/injection, schedule: Q01DX009 (ip), vehicle: saline with Tween-80.
[3] abbreviates: dose: 200.0 mg/kg/injection, schedule: Q04DX003 (ip), vehicle: saline with Tween-80.
Where [4] appears, read: dose: 3.0 mg/kg/injection, schedule: Q01DX010 (ip), vehicle: saline.

From PubChem BioAssay AID328 (DTP/NCI, 2004) come the findings set out here.

Each structure is given as a SMILES string. The list does not hold the whole screen: it gathers tests that were run many times, whatever their T/C, doses with no T/C, and many T/C values between a quarter and a half above the control. Further doses and runs are listed elsewhere. T/C gives the treated animals as a percentage of the vehicle group. Some entries give survivors of the animals treated and no T/C: the source holds a T/C of zero for them, seemingly a mark for toxic or unscored doses. Some doses without a T/C left all or most animals alive at the check, yet need not have been tolerated: survival well below the control is almost never listed, so the zero probably covers shortened survival too. Survivors were counted at the toxicity check, usually on the fifth day, unless a day is given; later deaths do not show. Schedules are NCI's codes, taken here to give the interval after Q, in days (D) or hours (H), and the number of doses after X. Some entries were tested several times; the values are given in rising order. Some molecules as drawn cover several salts, stereoisomers or complexes of the source; a dose is that of the sample tested. Where survival is the endpoint, the PubChem record calls one and a half times the control and up active, and a quarter to a half above the control has no call in these data; cut-offs in other NCI protocols can differ. Some T/C values carry the count of animals alive at the toxicity check (mostly the fifth day); without a count, all were alive then.

Regarding `Nc1nc(SN=Nc2ccc(S(=O)(=O)O)cc2)c2[nH]cnc2n1`, the T/C is 130 % of control (dose: 6.0 mg/kg/injection, schedule: Q01DX009 (ip), vehicle: Klucel (hydroxypropylcellulose) (HPC)); 135 % of control (dose: 6.25 mg/kg/injection, schedule: Q01DX009 (ip), vehicle: Klucel (hydroxypropylcellulose) (HPC)); 130 % of control (dose: 67.0 mg/kg/injection, schedule: Q04DX003 (ip), vehicle: Klucel (hydroxypropylcellulose) (HPC)); 125 and 130 % of control (dose: 100.0 mg/kg/injection, schedule: Q04DX003 (ip), vehicle: Klucel (hydroxypropylcellulose) (HPC)). In addition, the survivor count is listed as 6 of 6 (dose: 12.5 mg/kg/injection, schedule: Q01DX009 (ip), vehicle: Klucel (hydroxypropylcellulose) (HPC)); 6 of 6 (dose: 25.0 mg/kg/injection, schedule: Q01DX009 (ip), vehicle: Klucel (hydroxypropylcellulose) (HPC)); 6 of 6 (dose: 50.0 mg/kg/injection, schedule: Q01DX009 (ip), vehicle: Klucel (hydroxypropylcellulose) (HPC)); 4 of 4 (dose: 100.0 mg/kg/injection, schedule: Q01DX009 (ip), vehicle: Klucel (hydroxypropylcellulose) (HPC)); 4 of 5 (dose: 200.0 mg/kg/injection, schedule: Q01DX009 (ip), vehicle: Klucel (hydroxypropylcellulose) (HPC)); 2 of 6 under setting [1].
Consider `O=C(CN1CCCCC1)c1ccc2c(c1)Cc1cc(C(=O)CN3CCCCC3)ccc1O2`, for which, under setting [2], the survivor count was 3 of 6.
As to `C=CCOCC1CO1` (stereo not drawn), where the note is “dose: 400.0 mg/kg/injection, schedule: Q01DX009 (ip), vehicle: saline”, the survivor count is given as 2 of 5.
Regarding `O=C1CCC(C(=O)N/N=C\C=N/NC(=O)C2CCC(=O)N2)N1` (stereo not drawn), the survivor count was 5 of 7 (dose: 40.0 mg/kg/injection, schedule: Q01DX009 (ip), vehicle: saline with Tween-80) and 7 of 7 (dose: 80.0 mg/kg/injection, schedule: Q01DX009 (ip), vehicle: saline with Tween-80).
Turning to `O=Cc1cn[nH]c1-c1ccccc1`, the survivor count (dose: 400.0 mg/kg/injection, schedule: Q01DX009 (ip), vehicle: Klucel (hydroxypropylcellulose) (HPC)) is listed as 6 of 6 and the survivor count under setting [1] is listed as 6 of 6.
Consider `CCOC(=O)C[n+]1ccccc1`, for which the survivor count reads like this: (dose: 150.0 mg/kg/injection, schedule: Q01DX009 (ip), vehicle: saline) 0 of 6; under setting [3], 5 of 6; (dose: 225.0 mg/kg/injection, schedule: Q01DX009 (ip), vehicle: saline) 0 of 6; (dose: 300.0 mg/kg/injection, schedule: Q04DX003 (ip), vehicle: saline) 1 of 6.
Consider `NC(=S)N/N=C\c1nccc2c(C(F)(F)F)cccc12`, for which the survivor count is recorded as 1 of 6 (dose: 50.0 mg/kg/injection, schedule: Q04DX003 (ip), vehicle: saline with Tween-80); 0 of 6 (dose: 100.0 mg/kg/injection, schedule: Q04DX003 (ip), vehicle: saline with Tween-80); 0 of 6 under setting [3].
Turning to `C=C1C(=O)O[C@H]2[C@H]1[C@H](OC(=O)/C(C)=C\C)C[C@]1(CO1)[C@@H]1[C@H](OC(C)=O)C=C(C)[C@]21O`, the survivor count (dose: 80.0 mg/kg/injection, schedule: Q01DX010 (ip), vehicle: steroid suspending solution) is on record as 6 of 6.
Take `Nc1nc(=O)c2[nH]cnc2n1O`: the survivor count reads like this: (dose: 40.0 mg/kg/injection, schedule: Q04DX003 (ip), vehicle: saline with Tween-80) 3 of 6; (dose: 55.0 mg/kg/injection, schedule: Q01DX009 (ip), vehicle: saline) 5 of 6; (dose: 60.0 mg/kg/injection, schedule: Q04DX003 (ip), vehicle: saline with Tween-80) 1 of 6; (dose: 90.0 mg/kg/injection, schedule: Q04DX003 (ip), vehicle: saline with Tween-80) 0 of 6.
On to `CC1OC(=O)C(C(C)C)NC(=O)C(C(C)C)OC(=O)C(C(C)C)NC(=O)C(C)OC(=O)C(C(C)C)NC(=O)C(C(C)C)OC(=O)C(C(C)C)NC(=O)C(C)OC(=O)C(C(C)C)NC(=O)C(C(C)C)OC(=O)C(C(C)C)NC1=O` (stereo not drawn), for which the T/C is 130 % of control (dose: 5.0 mg/kg/injection, schedule: Q01DX009 (ip), vehicle: Klucel (hydroxypropylcellulose) (HPC)); 146 % of control [5 of 6 alive] (dose: 6.5 mg/kg/injection, schedule: Q01DX009 (ip), vehicle: saline); 126 % of control (dose: 10.0 mg/kg/injection, schedule: Q01DX009 (ip), vehicle: Klucel (hydroxypropylcellulose) (HPC)). For the same compound, the survivor count runs as follows: (dose: 50.0 mg/kg/injection, schedule: Q04DX003 (ip), vehicle: Klucel (hydroxypropylcellulose) (HPC)) 6 of 7; (dose: 75.0 mg/kg/injection, schedule: Q04DX003 (ip), vehicle: Klucel (hydroxypropylcellulose) (HPC)) 4 of 7.
Consider `Cc1ccc2c(ccc(/C=C/c3ccc(O)c4ncccc34)[n+]2C)c1`, for which the survivor count is recorded as 1 of 6 (dose: 150.0 mg/kg/injection, schedule: Q01DX009 (ip), vehicle: Klucel (hydroxypropylcellulose) (HPC)) and 1 of 6 (dose: 300.0 mg/kg/injection, schedule: Q01DX009 (ip), vehicle: Klucel (hydroxypropylcellulose) (HPC)).
With `Nc1nc(N)c2cc(Sc3cccc(C(F)(F)F)c3)ccc2n1`, the T/C reads like this: (dose: 100.0 mg/kg/injection, schedule: Q01DX009 (ip), vehicle: saline with Tween-80) 129 % of control; under setting [2], 137 % of control.
Take `NC(N)=N/N=C(/c1ccccc1)c1ccc(F)cc1`: the T/C (dose: 2.5 mg/kg/injection, schedule: Q01DX009 (ip), vehicle: Klucel (hydroxypropylcellulose) (HPC)) is 135 % of control. For the same compound, the survivor count reads like this: (dose: 40.0 mg/kg/injection, schedule: Q01DX009 (ip), vehicle: Klucel (hydroxypropylcellulose) (HPC)) 0 of 6 and 6 of 6; (dose: 40.0 mg/kg/injection, schedule: Q01DX009 (ip), vehicle: saline) 5 of 6; (dose: 80.0 mg/kg/injection, schedule: Q01DX009 (ip), vehicle: Klucel (hydroxypropylcellulose) (HPC)) 0 of 6; (dose: 160.0 mg/kg/injection, schedule: Q01DX009 (ip), vehicle: Klucel (hydroxypropylcellulose) (HPC)) 0 of 6.
As for `CC(=O)c1cccc(NC2C(N)C(NC(=O)N(C)C)(C(C)O)C(C)(O)C2(O)COC(=O)c2c(C)cccc2O)c1` (stereo not drawn), the T/C (dose: 0.38 mg/kg/injection, schedule: Q01DX010 (ip), vehicle: saline) was 136 % of control; the T/C (dose: 0.75 mg/kg/injection, schedule: Q01DX010 (ip), vehicle: saline) was 136 % of control; the T/C (dose: 1.5 mg/kg/injection, schedule: Q01DX010 (ip), vehicle: saline) was 140 % of control; the T/C under setting [4] was 145 % of control; the T/C (dose: 5.18 mg/kg/injection, schedule: Q04DX003 (ip), vehicle: alkali diluted with saline) is 146 % of control; the T/C (dose: 14.4 mg/kg/injection, schedule: Q04DX003 (ip), vehicle: alkali diluted with saline) was 149 % of control. Moreover, under “dose: 15.0 mg/kg/injection, schedule: Q04DX003 (ip), vehicle: alkali diluted with saline”, the T/C was 130 % of control [7 of 8 alive]. Further, the survivor count reads like this: under setting [4], 0 of 6; (dose: 6.0 mg/kg/injection, schedule: Q01DX010 (ip), vehicle: saline) 0 of 6; (dose: 12.0 mg/kg/injection, schedule: Q01DX010 (ip), vehicle: saline) 0 of 6; (dose: 18.0 mg/kg/injection, schedule: Q04DX003 (ip), vehicle: alkali diluted with saline) 5 of 8; (dose: 24.0 mg/kg/injection, schedule: Q04DX003 (ip), vehicle: alkali diluted with saline) 4 of 8; (dose: 25.0 mg/kg/injection, schedule: Q04DX003 (ip), vehicle: alkali diluted with saline) 1 of 8. Also, the survivor count (dose: 30.0 mg/kg/injection, schedule: Q04DX003 (ip), vehicle: alkali diluted with saline) is reported as 1 of 8.
For the compound `CCCCC(=O)OCC1OC(n2cnc3c(=S)nc[nH]c32)C(OC(=O)CCCC)C1OC(=O)CCCC` (stereo not drawn), the survivor count reads like this: (dose: 200.0 mg/kg/injection, schedule: Q01DX009 (sc), vehicle: olive oil, sesame oil, peanut oil) 6 of 6; (dose: 400.0 mg/kg/injection, schedule: Q01DX009 (sc), vehicle: olive oil, sesame oil, peanut oil) 6 of 6.
